These are yes or no findings as the source states them, for the method shown. In cells and extracts the contact can be indirect. Some results given as binding are weak or reduced against the parent protein; the word gives no strength.

The chains behind the UniProt entries cited, without tags or fusion partners.
UniProt Q07955: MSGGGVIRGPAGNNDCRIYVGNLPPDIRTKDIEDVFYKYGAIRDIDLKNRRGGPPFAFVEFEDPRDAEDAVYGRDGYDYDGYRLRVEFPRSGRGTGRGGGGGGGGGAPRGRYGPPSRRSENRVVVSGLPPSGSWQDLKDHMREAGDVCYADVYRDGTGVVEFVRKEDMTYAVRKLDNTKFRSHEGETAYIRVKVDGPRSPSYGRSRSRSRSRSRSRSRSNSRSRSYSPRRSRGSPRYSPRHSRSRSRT
UniProt O75475: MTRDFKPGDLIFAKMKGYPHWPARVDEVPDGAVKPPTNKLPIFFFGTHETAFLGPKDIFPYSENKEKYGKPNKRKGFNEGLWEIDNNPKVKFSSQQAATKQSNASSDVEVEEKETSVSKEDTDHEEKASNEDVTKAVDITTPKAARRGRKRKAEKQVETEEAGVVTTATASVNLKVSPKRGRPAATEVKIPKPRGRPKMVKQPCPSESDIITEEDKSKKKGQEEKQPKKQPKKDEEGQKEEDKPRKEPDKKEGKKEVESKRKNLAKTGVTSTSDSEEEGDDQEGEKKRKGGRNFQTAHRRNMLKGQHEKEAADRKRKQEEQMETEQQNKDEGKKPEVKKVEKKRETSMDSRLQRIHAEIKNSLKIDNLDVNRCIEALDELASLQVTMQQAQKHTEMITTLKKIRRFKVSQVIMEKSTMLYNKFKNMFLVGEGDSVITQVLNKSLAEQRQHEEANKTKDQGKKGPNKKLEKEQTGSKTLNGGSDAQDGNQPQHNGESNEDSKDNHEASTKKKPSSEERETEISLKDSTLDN

In the experiment the target is SRSF1 (human (endogenous in H1, MSC and IMR90 cells)) (UniProt Q07955). Put plainly: co-IP; endogenous proteins; 200 ug pre-cleared lysate (20 mM Tris HCl pH 8, 137 mM NaCl, 1% Nonidet P-40, 2 mM EDTA) of H1, MSC and IMR90 cells precipitated with anti-SRSF1 antibody and protein G magnetic beads at 4 °C; PSIP1 detected by western blot; beads without antibody as IP control.

With “PSIP1 protein (also known as LEDGF), p75 isoform (from UniProt O75475 1-530)”, the binding result was “binds”.

Source of the values: paper PMC6138936.
